According to publication PMC7721357:
Results are given in words; binding and its absence hold for the method and conditions named. Binding seen in cells or lysates may run through a third protein.

Target: T1, endogenous TRAF6 of mouse cells (mouse (endogenous in BMDMs, Raw264.7, splenocytes)) (UniProt P70196)
T1 sequence: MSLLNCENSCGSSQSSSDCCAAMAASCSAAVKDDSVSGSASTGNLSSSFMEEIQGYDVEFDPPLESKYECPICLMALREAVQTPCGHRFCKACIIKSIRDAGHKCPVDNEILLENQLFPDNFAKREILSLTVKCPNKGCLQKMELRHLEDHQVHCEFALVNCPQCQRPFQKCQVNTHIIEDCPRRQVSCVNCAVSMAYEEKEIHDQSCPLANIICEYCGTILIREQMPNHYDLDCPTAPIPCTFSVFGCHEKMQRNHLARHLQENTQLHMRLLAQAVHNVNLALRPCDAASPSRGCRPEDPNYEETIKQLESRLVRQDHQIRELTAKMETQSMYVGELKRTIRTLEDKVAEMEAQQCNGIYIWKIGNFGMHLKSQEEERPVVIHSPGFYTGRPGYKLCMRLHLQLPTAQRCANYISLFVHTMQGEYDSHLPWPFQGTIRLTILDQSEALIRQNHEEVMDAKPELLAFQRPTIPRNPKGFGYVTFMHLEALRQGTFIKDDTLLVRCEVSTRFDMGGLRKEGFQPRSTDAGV
Assay: co-IP; only the binder purified

Substance: rRv2626c-DN (dominant-negative form, E125Q and H126Q) (from UniProt P9WJA3 123-131)
- binding: no binding (tested: 2.5 μg/ml)
